Experimental data as given in PMC6803673, “Molecular features of the UNC-45 chaperone critical for binding and folding muscle myosin” (Nature Communications, 2019).
These are yes or no findings as the source states them, for the method shown. Some results given as binding are weak or reduced against the parent protein; the word gives no strength.

T1: MHC-B muscle myosin motor domain (residues 1–790) (C. elegans) (UniProt P02566)
T1 sequence: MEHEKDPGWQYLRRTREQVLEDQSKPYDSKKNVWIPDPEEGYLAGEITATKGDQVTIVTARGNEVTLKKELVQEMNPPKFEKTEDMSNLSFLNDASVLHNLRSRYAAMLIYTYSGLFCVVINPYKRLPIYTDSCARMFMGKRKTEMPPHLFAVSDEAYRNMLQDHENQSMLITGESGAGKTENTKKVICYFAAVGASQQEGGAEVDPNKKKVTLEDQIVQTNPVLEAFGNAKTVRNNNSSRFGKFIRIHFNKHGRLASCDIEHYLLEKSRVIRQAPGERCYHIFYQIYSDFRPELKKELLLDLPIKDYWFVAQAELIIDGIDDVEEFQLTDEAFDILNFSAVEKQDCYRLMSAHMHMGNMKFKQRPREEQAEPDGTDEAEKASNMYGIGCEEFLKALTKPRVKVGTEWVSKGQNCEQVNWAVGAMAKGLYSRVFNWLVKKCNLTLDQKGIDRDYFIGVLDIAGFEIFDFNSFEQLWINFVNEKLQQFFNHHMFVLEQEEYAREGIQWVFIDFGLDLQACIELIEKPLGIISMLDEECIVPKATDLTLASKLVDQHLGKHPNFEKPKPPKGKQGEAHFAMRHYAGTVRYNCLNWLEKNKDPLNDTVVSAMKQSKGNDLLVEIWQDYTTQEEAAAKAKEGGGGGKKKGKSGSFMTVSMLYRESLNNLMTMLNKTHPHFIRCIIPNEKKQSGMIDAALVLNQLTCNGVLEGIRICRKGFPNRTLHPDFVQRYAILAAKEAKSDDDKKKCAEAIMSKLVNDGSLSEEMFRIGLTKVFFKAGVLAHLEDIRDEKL


Columns and labels:
[1] = target: UNC-45 L822F (ts mutant, bacterial) (C. elegans) (UniProt G5EG62); assay: crystal structure; UNC-45 mutant crystals grown by sitting drop vapor diffusion at 19 °C; both purified
[2] = target: T1, MHC-B muscle myosin motor domain (residues 1–790) (C. elegans); assay: SEC; MHC-B after NiNTA on Superdex 200 5/150 GL, 50 mM Tris pH 7.5, 150 mM NaCl; both purified

| binding [1] | binding [2] | Binder |
| --- | --- | --- |
| binds |  | UNC-45 L822F (ts mutant, bacterial) (protein, UniProt G5EG62 1-961) MVARVQTAEEIRDEGNAAVKDQDYIKADELYTEALQLTTDEDKALRPVLYRNRAMARLKRDDFEGAQSDCTKALEFDGADVKALFRRSLAREQLGNVGPAFQDAKEALRLSPNDKGIVEVLQRLVKANNDKIKQTTSLANKVTDMEKLAFRGEAKDTEQKMTALNNLLVLCRESESGATGVWNQGALVPFVLNLINDASENEEVTVTAIRILDETIKNSVRCMKFLAMHDPDGPKSVRFVCRLMCKKSTKDFVDATGILVQRVFNAMAKMDRQKEMKPDPEVAEANKIWIIRVLLELQEMLQDPKVGAVQRETCIDLFLKNLMHMDGGIPRGWSWKFVEERGLLALLDVASQIPELCEYPVSAETRQHVAICLQRLEEDMVFDTKRTIFKEKVDMFFNALISRCTNDDEGHKYRIKLSCFLITMLQGPVDIGINLITNDQLTPIMLEMAASQDHLMQGIAAELIVATVSKHERAINMLKVGIPVLRALYDSEDPTVKVRALVGLCKIGAAGGDDISKATMKEEAVISLAKTCKKFLLETEKYSVDIRRYACEGLSYLSLDADVKEWIVDDSLLLKALVLLAKKAGALCVYTLATIYANLSNAFEKPKVDEEMVKLAQFAKHHVPETHPKDTEEYVEKRVRALVEEGAVPACVAVSKTESKNALELIARSLLAFAEYEDLRGRIIAEGGTVLCLRLTKEASGEGKIKAGHAIAKLGAKADPMISFPGQRAYEVVKPLCDLLHPDVEGKANYDSLLTLTNLASVSDSIRGRILKEKAIPKIEEFWFMTDHEHLRAAAAELLLNLLFFEKFYEETVAPGTDRLKFWVLYSAEVEEERLSRASAAGFAILTEDENACARIMDEIKSWPEVFKDIAMHEDAETQRRGLMGIANIMHSSNKLCSEIVSSEVFRVLVAVTKLGTINQERAGSTEQAKRGLEAAEKFGLIKATDREIYERENQMSTIQE |
|  | no binding | MHC-B muscle myosin motor domain (residues 1–790) (domain or fragment, C. elegans, UniProt P02566 1-790, looked up, C. elegans body wall muscle myosin II heavy chain isoform B (MHC-B, UNC-54), motor domain, residues 1-790, cloned from C. elegans cDNA; In the SEC assays with UNC-45 the protein was heat-damaged (unfolded or misfolded) at 27 °C; Two vectors (pFastBac DUAL, pACEBac1) encode the same 1-790 His6 protein; also called myosin II heavy chain isoform B; UNC-54; source: High Five insect cells, …) MEHEKDPGWQYLRRTREQVLEDQSKPYDSKKNVWIPDPEEGYLAGEITATKGDQVTIVTARGNEVTLKKELVQEMNPPKFEKTEDMSNLSFLNDASVLHNLRSRYAAMLIYTYSGLFCVVINPYKRLPIYTDSCARMFMGKRKTEMPPHLFAVSDEAYRNMLQDHENQSMLITGESGAGKTENTKKVICYFAAVGASQQEGGAEVDPNKKKVTLEDQIVQTNPVLEAFGNAKTVRNNNSSRFGKFIRIHFNKHGRLASCDIEHYLLEKSRVIRQAPGERCYHIFYQIYSDFRPELKKELLLDLPIKDYWFVAQAELIIDGIDDVEEFQLTDEAFDILNFSAVEKQDCYRLMSAHMHMGNMKFKQRPREEQAEPDGTDEAEKASNMYGIGCEEFLKALTKPRVKVGTEWVSKGQNCEQVNWAVGAMAKGLYSRVFNWLVKKCNLTLDQKGIDRDYFIGVLDIAGFEIFDFNSFEQLWINFVNEKLQQFFNHHMFVLEQEEYAREGIQWVFIDFGLDLQACIELIEKPLGIISMLDEECIVPKATDLTLASKLVDQHLGKHPNFEKPKPPKGKQGEAHFAMRHYAGTVRYNCLNWLEKNKDPLNDTVVSAMKQSKGNDLLVEIWQDYTTQEEAAAKAKEGGGGGKKKGKSGSFMTVSMLYRESLNNLMTMLNKTHPHFIRCIIPNEKKQSGMIDAALVLNQLTCNGVLEGIRICRKGFPNRTLHPDFVQRYAILAAKEAKSDDDKKKCAEAIMSKLVNDGSLSEEMFRIGLTKVFFKAGVLAHLEDIRDEKL |
